Measurements: PubChem BioAssay AID328 (DTP/NCI, 2004)
The list is a part of this screen's results and no random one: it is rich in T/C values a quarter to a half above the control, in often repeated tests (any T/C) and in doses without a T/C. Further doses and runs are listed elsewhere. T/C is the treated group as % of the vehicle group. Some doses have a count of surviving animals in place of a T/C: the source holds a T/C of zero for them, seemingly a mark for toxic or unscored doses. Some doses without a T/C left all or most animals alive at the check, yet need not have been tolerated: the source hardly ever lists a survival T/C far under the control, and the zero likely stands for such cases as well. Counts of survivors are from the toxicity check (mostly the fifth day) where no day follows; animals may have died later. Schedule codes are those of the source, taken here to give the interval after Q, in days (D) or hours (H), and the number of doses after X. Where survival is the endpoint, this PubChem deposit counts one and a half times the control or more as active, and values a quarter to a half above the control carry no call in these data; other NCI protocols may use other cut-offs. Some doses were run more than once; the values are given in rising order.

System: BDF1 mice, P388 leukemia ip, median survival T/C
Assay: NCI In Vivo Anticancer Drug Screen. Data for tumor model P388 Leukemia (intraperitoneal) in B6D2F1 (BDF1) mice
Conditions: T/C endpoint: median survival time, higher T/C = longer survival
Protocol: The antitumor activity of compounds was measured in mice bearing transplantable tumors. Survival or tumor size were measured and the results are expressed as the measurement made in the treated group (T) divided by the measurement made in the vehicle treated control group (C). The tumor model used in this assay is P388 Leukemia (intraperitoneal) in B6D2F1 (BDF1) mice

[1] = dose: 100.0 mg/kg/injection, schedule: Q04DX003 (ip), vehicle: saline with Tween-80
[2] = dose: 200.0 mg/kg/injection, schedule: Q04DX003 (ip), vehicle: saline with Tween-80
[3] = dose: 400.0 mg/kg/injection, schedule: Q04DX003 (ip), vehicle: saline with Tween-80
[4] = dose: 100.0 mg/kg/injection, schedule: Q04DX003 (ip), vehicle: Klucel (hydroxypropylcellulose) (HPC)

CCCCN=C(N)c1ccc(NC(=O)c2ccc(C(=O)Nc3ccc(C(N)=NCCCC)cc3)cc2)cc1
T/C (dose: 15.0 mg/kg/injection, schedule: Q01DX009 (ip), vehicle: saline with Tween-80): 135 % of control
T/C (dose: 20.0 mg/kg/injection, schedule: Q04DX003 (ip), vehicle: saline with Tween-80): 145 % of control
T/C (dose: 26.0 mg/kg/injection, schedule: Q04DX003 (ip), vehicle: saline with Tween-80): 141 % of control
survivor count (dose: 60.0 mg/kg/injection, schedule: Q01DX009 (ip), vehicle: saline with Tween-80): 6 of 6
T/C (dose: 90.0 mg/kg/injection, schedule: Q04DX003 (ip), vehicle: saline with Tween-80): 131 % of control

Cn1cnc([N+](=O)[O-])c1Sc1ncnc2nc[nH]c12
T/C (dose: 100.0 mg/kg/injection, schedule: Q01DX009 (ip), vehicle: saline): 127 % of control
T/C (dose: 100.0 mg/kg/injection, schedule: Q04DX003 (ip), vehicle: saline sonified): 127 and 135 % of control
T/C (dose: 200.0 mg/kg/injection, schedule: Q04DX003 (ip), vehicle: saline sonified): 131 % of control
survivor count (dose: 400.0 mg/kg/injection, schedule: Q01DX009 (ip), vehicle: saline): 4 of 6

Cc1cccc(NC(=O)N(CCCl)N=O)c1
T/C (dose: 0.05 mg/kg/injection, schedule: Q01DX009 (ip), vehicle: saline): 130 % of control
T/C (dose: 0.1 mg/kg/injection, schedule: Q01DX009 (ip), vehicle: saline): 130 % of control
T/C (dose: 0.2 mg/kg/injection, schedule: Q01DX009 (ip), vehicle: saline): 141 % of control
survivor count [1]: 0 of 6
survivor count [2]: 0 of 6
survivor count [3]: 0 of 6

O=C(c1ccccc1)C(O)(CC(c1ccccc1)[P+](c1ccccc1)(c1ccccc1)c1ccccc1)c1ccccc1 (centres undefined)
T/C (dose: 1.75 mg/kg/injection, schedule: Q01DX009 (ip), vehicle: saline): 125 % of control
T/C (dose: 3.13 mg/kg/injection, schedule: Q01DX009 (ip), vehicle: saline with Tween-80): 145 % of control
T/C (dose: 6.25 mg/kg/injection, schedule: Q01DX009 (ip), vehicle: saline with Tween-80): 127 % of control
T/C (dose: 12.5 mg/kg/injection, schedule: Q01DX009 (ip), vehicle: Klucel (hydroxypropylcellulose) (HPC)): 127 % of control
survivor count (dose: 12.5 mg/kg/injection, schedule: Q01DX009 (ip), vehicle: saline with Tween-80): 6 of 6
survivor count (dose: 25.0 mg/kg/injection, schedule: Q01DX009 (ip), vehicle: Klucel (hydroxypropylcellulose) (HPC)): 2 of 6
survivor count (dose: 25.0 mg/kg/injection, schedule: Q04DX003 (ip), vehicle: Klucel (hydroxypropylcellulose) (HPC)): 3 of 6
survivor count (dose: 25.0 mg/kg/injection, schedule: Q04DX003 (ip), vehicle: saline with Tween-80): 5 of 6
survivor count (dose: 50.0 mg/kg/injection, schedule: Q04DX003 (ip), vehicle: Klucel (hydroxypropylcellulose) (HPC)): 4 of 6
survivor count [4]: 0 of 6
survivor count [1]: 0 of 6
survivor count [2]: 0 of 6
survivor count [3]: 0 of 6

O=[N+]([O-])c1ccc2nccc(Cl)c2c1
survivor count [4]: 2 of 6
